Measured values from the supplement of paper PMC10849652.
The other results are listed elsewhere or left out.

By UniProt entry, the sequences of proteins in these tests, tags left out. Where a name states a change or a piece, a line headed by the entry shows the natural chain unless it says otherwise.
UniProt P56377: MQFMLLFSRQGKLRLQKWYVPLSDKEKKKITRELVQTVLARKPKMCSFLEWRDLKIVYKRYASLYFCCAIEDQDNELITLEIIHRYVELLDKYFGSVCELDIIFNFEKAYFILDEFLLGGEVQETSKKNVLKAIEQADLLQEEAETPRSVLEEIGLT
UniProt Q9UPS8: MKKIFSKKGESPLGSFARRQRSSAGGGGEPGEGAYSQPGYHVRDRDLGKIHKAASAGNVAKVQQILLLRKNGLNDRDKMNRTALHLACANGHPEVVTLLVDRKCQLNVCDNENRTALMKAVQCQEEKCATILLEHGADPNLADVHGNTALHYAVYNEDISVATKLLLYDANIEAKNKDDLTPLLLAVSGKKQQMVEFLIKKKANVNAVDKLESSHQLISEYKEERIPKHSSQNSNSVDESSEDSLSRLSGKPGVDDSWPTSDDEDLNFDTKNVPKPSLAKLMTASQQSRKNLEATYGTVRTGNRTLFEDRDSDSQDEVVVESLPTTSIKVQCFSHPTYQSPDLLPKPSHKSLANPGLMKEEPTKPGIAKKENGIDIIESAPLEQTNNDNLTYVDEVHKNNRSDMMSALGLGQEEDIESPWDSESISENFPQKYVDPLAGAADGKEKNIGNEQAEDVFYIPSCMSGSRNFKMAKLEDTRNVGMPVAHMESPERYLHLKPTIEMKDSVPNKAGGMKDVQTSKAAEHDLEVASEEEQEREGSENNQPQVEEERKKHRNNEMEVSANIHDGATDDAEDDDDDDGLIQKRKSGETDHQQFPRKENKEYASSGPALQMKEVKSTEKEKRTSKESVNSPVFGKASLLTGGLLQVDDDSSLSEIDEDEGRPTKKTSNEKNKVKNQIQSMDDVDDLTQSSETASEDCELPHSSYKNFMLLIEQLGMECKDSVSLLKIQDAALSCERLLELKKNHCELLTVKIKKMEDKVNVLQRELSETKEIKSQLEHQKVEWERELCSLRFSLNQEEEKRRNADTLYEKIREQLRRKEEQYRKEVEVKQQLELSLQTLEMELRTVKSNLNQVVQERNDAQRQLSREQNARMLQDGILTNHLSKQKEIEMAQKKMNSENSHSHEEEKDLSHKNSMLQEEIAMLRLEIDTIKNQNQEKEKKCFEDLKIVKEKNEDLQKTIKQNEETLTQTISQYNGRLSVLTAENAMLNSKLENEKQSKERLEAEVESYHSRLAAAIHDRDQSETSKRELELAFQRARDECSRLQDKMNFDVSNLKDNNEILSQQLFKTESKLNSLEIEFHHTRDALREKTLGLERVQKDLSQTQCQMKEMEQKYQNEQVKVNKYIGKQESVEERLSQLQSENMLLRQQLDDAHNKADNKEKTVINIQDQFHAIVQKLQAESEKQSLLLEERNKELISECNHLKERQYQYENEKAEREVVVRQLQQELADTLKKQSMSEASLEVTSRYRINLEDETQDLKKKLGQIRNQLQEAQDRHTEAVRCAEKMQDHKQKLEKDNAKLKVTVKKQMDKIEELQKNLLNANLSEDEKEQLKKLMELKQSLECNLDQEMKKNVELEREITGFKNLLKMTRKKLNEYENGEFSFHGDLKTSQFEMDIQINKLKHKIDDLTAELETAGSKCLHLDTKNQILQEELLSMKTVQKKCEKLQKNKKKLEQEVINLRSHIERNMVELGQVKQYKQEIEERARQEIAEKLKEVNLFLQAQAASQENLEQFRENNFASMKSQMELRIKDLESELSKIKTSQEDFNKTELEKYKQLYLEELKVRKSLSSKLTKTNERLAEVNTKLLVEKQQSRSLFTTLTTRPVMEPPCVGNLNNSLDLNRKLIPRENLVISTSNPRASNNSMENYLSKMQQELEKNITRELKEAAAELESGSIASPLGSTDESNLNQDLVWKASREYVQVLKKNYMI
UniProt Q96P48: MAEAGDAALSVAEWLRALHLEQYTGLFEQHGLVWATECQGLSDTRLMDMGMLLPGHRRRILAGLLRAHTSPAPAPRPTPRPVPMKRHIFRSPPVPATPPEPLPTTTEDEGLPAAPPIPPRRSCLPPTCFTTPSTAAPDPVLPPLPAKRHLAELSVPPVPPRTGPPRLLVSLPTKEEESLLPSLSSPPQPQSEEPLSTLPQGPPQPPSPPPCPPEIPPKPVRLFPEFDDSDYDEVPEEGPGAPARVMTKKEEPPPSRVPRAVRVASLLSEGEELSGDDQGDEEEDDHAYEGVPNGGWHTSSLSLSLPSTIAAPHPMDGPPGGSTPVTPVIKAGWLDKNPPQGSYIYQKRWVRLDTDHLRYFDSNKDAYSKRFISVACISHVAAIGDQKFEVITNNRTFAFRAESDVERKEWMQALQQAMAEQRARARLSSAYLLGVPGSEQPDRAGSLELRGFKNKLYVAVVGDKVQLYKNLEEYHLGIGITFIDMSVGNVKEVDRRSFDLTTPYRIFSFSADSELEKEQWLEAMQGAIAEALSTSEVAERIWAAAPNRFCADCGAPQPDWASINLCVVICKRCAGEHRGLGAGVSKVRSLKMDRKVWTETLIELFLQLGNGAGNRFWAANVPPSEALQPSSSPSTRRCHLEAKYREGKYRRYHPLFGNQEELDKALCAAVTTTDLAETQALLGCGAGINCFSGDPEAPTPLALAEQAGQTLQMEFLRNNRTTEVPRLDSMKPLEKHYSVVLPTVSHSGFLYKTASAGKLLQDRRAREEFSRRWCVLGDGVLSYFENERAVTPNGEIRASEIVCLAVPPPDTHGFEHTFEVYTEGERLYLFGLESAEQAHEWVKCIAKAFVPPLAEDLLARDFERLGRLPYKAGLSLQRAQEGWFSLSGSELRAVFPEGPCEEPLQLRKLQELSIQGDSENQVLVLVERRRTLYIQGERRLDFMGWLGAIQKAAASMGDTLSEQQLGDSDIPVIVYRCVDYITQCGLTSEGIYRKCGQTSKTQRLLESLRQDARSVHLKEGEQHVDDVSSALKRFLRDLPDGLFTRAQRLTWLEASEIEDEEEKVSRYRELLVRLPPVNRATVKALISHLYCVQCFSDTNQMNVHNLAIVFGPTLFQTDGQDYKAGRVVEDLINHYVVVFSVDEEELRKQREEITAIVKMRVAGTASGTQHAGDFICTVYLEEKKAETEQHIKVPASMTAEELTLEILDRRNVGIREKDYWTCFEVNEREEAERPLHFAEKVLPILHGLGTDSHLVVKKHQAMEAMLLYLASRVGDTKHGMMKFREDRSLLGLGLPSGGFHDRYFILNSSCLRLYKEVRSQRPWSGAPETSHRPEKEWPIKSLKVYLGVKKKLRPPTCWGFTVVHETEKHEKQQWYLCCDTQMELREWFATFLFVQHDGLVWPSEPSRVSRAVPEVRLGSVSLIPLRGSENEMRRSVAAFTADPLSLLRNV
UniProt P53677: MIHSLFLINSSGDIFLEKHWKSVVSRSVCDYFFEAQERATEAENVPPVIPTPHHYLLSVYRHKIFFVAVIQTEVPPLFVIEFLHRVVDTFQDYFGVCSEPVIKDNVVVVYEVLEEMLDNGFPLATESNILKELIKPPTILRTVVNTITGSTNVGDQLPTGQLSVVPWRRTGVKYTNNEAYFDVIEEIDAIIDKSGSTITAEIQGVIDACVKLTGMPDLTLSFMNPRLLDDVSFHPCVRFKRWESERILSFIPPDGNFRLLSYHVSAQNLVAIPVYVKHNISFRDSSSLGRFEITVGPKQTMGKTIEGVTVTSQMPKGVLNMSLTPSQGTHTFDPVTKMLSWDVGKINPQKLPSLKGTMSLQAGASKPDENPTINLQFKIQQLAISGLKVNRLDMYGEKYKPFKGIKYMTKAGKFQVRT
UniProt Q9UH17: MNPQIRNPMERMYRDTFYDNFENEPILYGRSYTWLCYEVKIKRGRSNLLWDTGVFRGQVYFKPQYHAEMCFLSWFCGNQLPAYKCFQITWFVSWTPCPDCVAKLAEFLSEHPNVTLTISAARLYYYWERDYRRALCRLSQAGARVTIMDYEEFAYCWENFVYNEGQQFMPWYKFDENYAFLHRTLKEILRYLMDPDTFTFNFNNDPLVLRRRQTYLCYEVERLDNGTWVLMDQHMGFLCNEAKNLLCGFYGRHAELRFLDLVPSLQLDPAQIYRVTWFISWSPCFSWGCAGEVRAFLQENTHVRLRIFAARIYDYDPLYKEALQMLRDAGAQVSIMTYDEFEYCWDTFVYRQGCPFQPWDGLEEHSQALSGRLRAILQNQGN
UniProt Q9BZZ5: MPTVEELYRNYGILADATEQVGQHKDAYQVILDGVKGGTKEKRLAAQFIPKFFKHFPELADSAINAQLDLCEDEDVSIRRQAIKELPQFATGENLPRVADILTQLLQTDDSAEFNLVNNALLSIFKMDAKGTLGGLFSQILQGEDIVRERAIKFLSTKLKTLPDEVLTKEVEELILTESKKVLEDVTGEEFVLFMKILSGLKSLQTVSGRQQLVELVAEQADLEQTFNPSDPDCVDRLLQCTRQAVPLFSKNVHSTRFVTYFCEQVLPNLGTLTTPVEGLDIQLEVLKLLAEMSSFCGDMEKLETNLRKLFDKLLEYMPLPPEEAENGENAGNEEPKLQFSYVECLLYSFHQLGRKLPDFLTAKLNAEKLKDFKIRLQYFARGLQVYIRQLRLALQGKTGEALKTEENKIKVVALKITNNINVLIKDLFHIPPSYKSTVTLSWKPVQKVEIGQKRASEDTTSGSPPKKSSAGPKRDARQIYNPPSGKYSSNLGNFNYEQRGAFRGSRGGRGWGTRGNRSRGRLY
UniProt Q8N6S4: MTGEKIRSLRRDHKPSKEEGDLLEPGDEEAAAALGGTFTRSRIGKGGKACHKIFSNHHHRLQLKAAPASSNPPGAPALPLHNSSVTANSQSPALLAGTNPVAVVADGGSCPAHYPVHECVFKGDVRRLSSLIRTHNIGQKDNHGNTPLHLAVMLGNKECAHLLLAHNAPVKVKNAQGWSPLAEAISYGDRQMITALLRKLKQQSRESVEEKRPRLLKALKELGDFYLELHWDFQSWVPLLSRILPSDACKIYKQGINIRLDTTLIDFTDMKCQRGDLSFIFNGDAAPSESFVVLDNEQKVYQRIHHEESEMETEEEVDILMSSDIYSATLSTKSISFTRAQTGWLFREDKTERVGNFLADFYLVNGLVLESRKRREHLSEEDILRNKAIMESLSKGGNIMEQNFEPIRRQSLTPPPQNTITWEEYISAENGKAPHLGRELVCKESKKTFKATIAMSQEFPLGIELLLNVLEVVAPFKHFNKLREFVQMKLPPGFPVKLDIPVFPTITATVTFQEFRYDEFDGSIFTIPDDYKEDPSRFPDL
UniProt Q4LE39: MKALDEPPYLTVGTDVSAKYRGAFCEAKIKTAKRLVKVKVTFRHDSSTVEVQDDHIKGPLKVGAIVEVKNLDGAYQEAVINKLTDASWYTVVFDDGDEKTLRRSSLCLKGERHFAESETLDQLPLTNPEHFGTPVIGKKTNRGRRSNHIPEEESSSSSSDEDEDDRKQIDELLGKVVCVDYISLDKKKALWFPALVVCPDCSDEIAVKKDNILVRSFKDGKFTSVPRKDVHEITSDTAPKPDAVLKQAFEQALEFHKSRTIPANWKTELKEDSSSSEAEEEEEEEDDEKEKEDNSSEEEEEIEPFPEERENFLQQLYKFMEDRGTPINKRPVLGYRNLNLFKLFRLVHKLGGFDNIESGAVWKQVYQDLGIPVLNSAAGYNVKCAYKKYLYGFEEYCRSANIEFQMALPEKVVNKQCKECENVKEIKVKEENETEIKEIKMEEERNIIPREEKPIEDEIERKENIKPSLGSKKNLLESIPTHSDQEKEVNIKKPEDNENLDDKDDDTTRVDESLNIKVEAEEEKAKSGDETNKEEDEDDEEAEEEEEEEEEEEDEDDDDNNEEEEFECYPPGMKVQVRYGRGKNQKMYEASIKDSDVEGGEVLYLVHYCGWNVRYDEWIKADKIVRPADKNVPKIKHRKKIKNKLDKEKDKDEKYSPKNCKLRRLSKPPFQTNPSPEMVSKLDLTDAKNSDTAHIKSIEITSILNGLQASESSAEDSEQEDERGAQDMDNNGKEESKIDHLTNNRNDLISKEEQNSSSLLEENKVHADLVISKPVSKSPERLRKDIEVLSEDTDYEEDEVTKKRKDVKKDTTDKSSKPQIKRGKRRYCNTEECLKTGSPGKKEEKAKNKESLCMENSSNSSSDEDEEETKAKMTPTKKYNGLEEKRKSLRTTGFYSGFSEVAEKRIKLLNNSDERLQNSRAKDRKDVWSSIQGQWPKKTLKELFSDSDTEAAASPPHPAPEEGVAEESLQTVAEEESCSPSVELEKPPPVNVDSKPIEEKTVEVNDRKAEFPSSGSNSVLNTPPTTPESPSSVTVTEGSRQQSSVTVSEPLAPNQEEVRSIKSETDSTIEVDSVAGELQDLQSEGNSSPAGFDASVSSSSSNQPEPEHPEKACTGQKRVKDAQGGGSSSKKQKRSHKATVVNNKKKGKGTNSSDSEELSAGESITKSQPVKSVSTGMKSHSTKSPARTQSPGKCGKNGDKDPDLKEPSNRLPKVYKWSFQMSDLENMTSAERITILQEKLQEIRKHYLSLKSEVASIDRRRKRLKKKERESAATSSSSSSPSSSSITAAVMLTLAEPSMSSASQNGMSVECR

Experiments:
Assay in all cases: log2 fold change, soluble protein after heating vs DMSO (PISA); higher = thermal stabilisation; K562 cells, 10 uM, 30 min; active = over 0.2 and 3.5 SD of the protein, either way, in both replicates (recomputed)
[1] = compound: CC1=C(SC2=C1C(=N[C@H](C3=NN=C(N32)C)CC(=O)N)C4=CC=C(C=C4)Cl)C
Procedure, shortened: (§1)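 K562 cells at 2×10^6 cells/mL were given 10 μM compound for 30 min. Aliquots then went through 3 min of heating across 48°C-58°C, were pooled, and were extracted in PBS with 0.5% NP-40 at 4°C, and the supernatant after 21,000xg for 90 min was quantified by TMTpro 16plex LC-MS/MS with channel sums equalised. Thermal stability relative to control samples, from duplicates, is given as log2 fold change.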

[2] = compound: c1ccc([C@@H]2C[C@H]2NC2CCNCC2)cc1
Procedure, shortened: as §1

[3] = compound: C1=CC=C(C=C1)[C@H](COC2=CC3=C(C=C2)NC(=O)N3)NC(=O)C4=CC=CN(C4=O)CC5=CC(=C(C=C5)F)F
Procedure, shortened: as §1

[4] = compound: Cc1sc2c(c1C)C(c1ccc(Cl)cc1)=N[C@@H](CC(=O)OC(C)(C)C)c1nnc(C)n1-2
Procedure, shortened: as §1

[5] = compound: CC1=C2C(=CC=C1)N=C(N(C2=O)C3=CC=CC=C3C)CN4C=NC5=C(N=CN=C54)N
Procedure, shortened: as §1

Measured: log2 fold change

AP1G2 (UniProt O75843)
inactive: [1] 0.015 | [2] -0.299

AP1S2 (UniProt P56377)
inactive: [3] -0.065 | [1] -0.112 | [2] 0.112

ARHGAP5 (UniProt Q13017)
inactive: [3] -0.095 | [1] 0.22 | [4] 0 | [2] 0.02

ANKRD26 (UniProt Q9UPS8)
inactive: [1] -0.077 | [5] 0.039 | [4] -0.146 | [2] 0.034

ARAP1 (UniProt Q96P48)
inactive: [3] -0.084 | [1] -0.054 | [4] 0.151 | [2] 0.058

AP3M2 (UniProt P53677)
inactive: [3] -0.078 | [1] -0.144 | [2] -0.102

APOBEC3B (UniProt Q9UH17)
inactive: [1] -0.046 | [2] 0.146

ANKS1A (UniProt Q92625)
inactive: [3] -0.046 | [1] -0.108 | [4] 0.395 | [2] 0.185

ANKRD11 (UniProt Q6UB99)
inactive: [3] -0.144 | [5] 0.194

API5 isoform 1 (UniProt Q9BZZ5)
inactive: [1] -0.113 | [5] 0.453 | [4] -0.237 | [2] 0.061

2 successive entries already listed, for reference:
ANKRD26 (UniProt Q9UPS8)
inactive: [1] -0.077 | [5] 0.039 | [4] -0.146 | [2] 0.034

ARAP1 (UniProt Q96P48)
inactive: [3] -0.084 | [1] -0.054 | [4] 0.151 | [2] 0.058

Remaining list, next part

ANKRD13C (UniProt Q8N6S4)
inactive: [1] 0.134 | [5] 0.101 | [4] -0.008 | [2] -0.023

ARID4B (UniProt Q4LE39)
inactive: [4] -0.116

ANKRD52 (UniProt Q8NB46)
inactive: [1] -0.204 | [5] -0.122 | [4] -0.156 | [2] 0.05
